The assay is described as follows: qHTS Assay for Lipid Storage Modulators in Drosophila S3 Cells.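 As to cell number change: cells counted by Cell Tracker Red CMTPX staining in the red channel.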 As to conditions: BODIPY lipid droplet fluorescence, 18-24 h; for cell number change: measured here: cell count max response, cells fed with added oleic acid. The gist of the method:
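Laser-scanning cytometry quantifies lipid droplet accumulation (500–530 nm total intensity; droplet/cell object ratio) in oleic acid-fed (400 uM added) Drosophila S3 cells treated with a concentration series. 20 uM Triacsin C defined 100% inhibition.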
On the technique in general: In qHTS, concentration-response curves come from the screen itself.

Setting [1] is: measured here: lipid fluorescence (Fed channel) AC50, cells fed with added oleic acid.
Setting [2] is: measured here: cell number channel AC50, cells fed with added oleic acid.

Structures are written as SMILES. The list shows a part of the results. Shown are side measurements of this screen, not its main read-out; they come without a call. The list favours compounds with an active or inconclusive main result. Words in brackets tell the shape of the fitted curve; partial curves, single points and poor fits give uncertain potencies.

Data on 16 compounds can be found in PubChem BioAssay AID2685 (National Center for Advancing Translational Sciences (NCATS), 2010).

The AC50 is the concentration giving half of the maximal activity seen. Read a low AC50 as greater potency. Take `COc1ccc(N2CCN(C(=O)C3CCCN(S(=O)(=O)c4c(C)noc4C)C3)CC2)cc1` (configuration not stated): the cell number change was -14.8%. Further, under setting [1], the AC50 was 6.51 µM [falling, partial curve, poor fit].
Regarding `O=C1NC(=Nc2ccccc2Cl)S/C1=C\c1cccc([N+](=O)[O-])c1O`, the cell number change was -32.6%. The half-maximal activity concentration (AC50) under setting [2] was 2.59 µM [falling, full curve].
In the case of `O=C(CSCCc1ccccn1)Nc1cccnc1`, the cell number change came to 14.8%. Besides, the concentration at half-maximal activity (AC50) under setting [1] is 6.51 µM [falling, single point].
With `O=C(NCCC1=CCCCC1)c1ccc(Cl)c(S(=O)(=O)Nc2ccccc2)c1`, the concentration at half-maximal activity (AC50) under setting [1] was 6.51 µM [falling, single point].
Regarding `CCOc1ccc(CCNC(=O)C(CC)n2nc(C)n3c(cc4sccc43)c2=O)cc1OCC` (configuration not stated), the cell number change was -97.6%. Further, under setting [2], the AC50 was 0.58 µM [rising, partial curve]. Besides, the AC50 under setting [1] was 10.3 µM [falling, partial curve].
As for `COc1ccc(NC(=O)C(OC(=O)c2cnccn2)c2ccccc2)cc1Cl` (configuration not stated), the cell number change is -4.4%. Besides, the AC50 under setting [1] is 29.1 µM [rising, single point].
Regarding `CN(CC(=O)NCCc1ccc(F)cc1)CC(=O)Nc1ccc(F)c(F)c1F`, the cell number change worked out at 25%. In addition, under setting [2], the concentration at half-maximal activity (AC50) is 0.231 µM [rising, full curve, poor fit].
With `O=C(O)CCc1nnc(SCC(=O)Nc2cccc(C(F)(F)F)c2)[nH]c1=O`, the AC50 is 0.00517 µM [rising, full curve, poor fit] under setting [2] and 0.00461 µM [rising, full curve, poor fit] under setting [1].
For the compound `CC1CCc2c(sc3nc(CSc4n[nH]c(N)n4)[nH]c(=O)c23)C1` (configuration not stated), the cell number change was -27.8%. In addition, under setting [1], the AC50 was 2.91 µM [rising, single point].
Consider `CCSc1nnc(NC(=O)CSC2=NN3CCCC(=O)N=C3S2)s1`, for which the cell number change was determined as 3.81%. Moreover, the AC50 under setting [1] was 0.231 µM [falling, full curve, poor fit].
For the compound `Cc1nnc(SCC(=O)Nc2nsc(-c3ccccc3)n2)s1`, the cell number change stood at 3.78%. For the same compound, the half-maximal activity concentration (AC50) under setting [1] is 5.8 µM [rising, full curve, poor fit].
Turning to `O=c1oc2cc([N+](=O)[O-])ccc2nc1/C=C(\O)c1cccc(Br)c1`, the cell number change was -24.3%. Besides, the AC50 under setting [1] is 1.03 µM [falling, full curve, poor fit].
Regarding `COc1cc(NC(=O)c2ccc3snnc3c2)cc(OC)c1`, the cell number change stood at 5.29%. Under setting [2], the AC50 is 0.082 µM [rising, full curve, poor fit]. In addition, the half-maximal activity concentration (AC50) under setting [1] was 0.326 µM [rising, full curve, poor fit].
Turning to `COc1ccc(-c2noc(-c3cc4ccccc4oc3=O)n2)cc1`, the cell number change was 11.8%.
Same read-out and setting: the value for `O=C1C(=O)N(CCCc2ccccc2)c2ccccc21` was -11.6%.
`COc1ccc(NC(=O)C(NS(=O)(=O)c2ccc3c(c2)CCCN3C(C)=O)C(C)C)c(OC)c1` (configuration not stated): the cell number change is -31.7%. Also, the half-maximal activity concentration (AC50) under setting [2] was 5.17 µM [falling, partial curve]. In addition, under setting [1], the AC50 is 29.1 µM [falling, single point].
